# Test results: the supplement of paper PMC4749390
# Where a name gives a salt, the structure may show the parent alone. The list shows a part of the results. Repeats in this data set agree poorly, so a single value says little.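 Wild-type human LRH-1, a heavily sumoylated nuclear receptor, is tetracycline-inducible in stable JEG3 cells. RT-qPCR measured SUMO-sensitive APOC3 and MUC1 transcripts, which rise with SUMO-less LRH-1 or UBC9 knockdown, versus TBP and DMSO controls. Robust Z-scores beyond ±2 flagged primary hits, followed by toxicity and TBP filtering.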
# System: JEG3 expressing hLRH-1
# Test: APOC3 transcript change (ddCt vs TBP and DMSO), Z-score over library; higher = higher APOC3 expression
# Conditions: 10 µM; time (hr): 24
row,Compound,APOC3 transcript change (Z-score)
1,CCCCOc1cc(C(=O)NCCN(CC)CC)c2ccccc2n1 [dibucaine hydrochloride],-0.14
2,Cc1cc(C(C)(C)CC(C)(C)C)ccc1OCCOCC[N+](C)(C)Cc1ccccc1 [methylbenzethonium chloride],0.549
3,CC(C)[C@H](NC(=O)[C@H](CC(=O)O)NC(=O)[C@H](CCCCN)NC(=O)[C@@H](N)CCCN=C(N)N)C(=O)N[C@@H](Cc1ccc(O)cc1)C(=O)O [thymopentin],-0.412
4,CC(=O)[C@H]1CCC2C3CC=C4C[C@@H](O)CC[C@]4(C)C3CC[C@@]21C (stereo partly drawn) [pregnenolone],0.361
5,Cc1cc(NC(=O)C2=C(O)c3ccccc3S(=O)(=O)N2C)no1 [isoxicam],-2.37
6,Oc1ncc(F)c(O)n1 [fluorouracil],-1.04
7,COc1ccccc1O [guaiacol],-0.509
8,CN1CCc2cccc3c2C1Cc1ccc(O)c(O)c1-3 (stereo not drawn) [apomorphine hydrochloride],0.77
9,COc1cnc(NS(=O)(=O)c2ccc(N)cc2)nc1 [sulfameter],0.239
10,Cc1cnc(C(=O)NCCc2ccc(S(=O)(=O)NC(=O)NC3CCCCC3)cc2)cn1 [Glipizide],-1.39
11,NC[C@H]1O[C@H](O[C@H]2[C@H](O)[C@@H](O[C@H]3O[C@H](CO)[C@@H](O)[C@H](N)[C@H]3O)[C@H](N)C[C@@H]2N)[C@H](N)C[C@@H]1O [tobramycin],0.41
12,CCc1nc(N)nc(N)c1-c1ccc(Cl)cc1 [pyrimethamine],-0.011
13,O=S(=O)(O)c1cc(I)c(O)c2ncccc12 [chiniofon],-0.0719
14,CCN(CC)CCOC(=O)C(c1ccccc1)C1CCCCC1 (stereo not drawn) [drofenine hydrochloride],-1.48
15,OC[C@H]1O[C@@H](O[C@H]2[C@H](O)[C@@H](O)[C@@H](O)O[C@@H]2CO)[C@H](O)[C@@H](O)[C@H]1O [lactose monohydrate],0.446
16,COc1ccc(-c2cc(=O)c3c(O)cc(O[C@@H]4O[C@H](CO[C@@H]5O[C@@H](C)[C@H](O)[C@@H](O)[C@H]5O)[C@@H](O)[C@H](O)[C@H]4O)cc3o2)cc1O [diosmin],0.163
17,COc1ccc(C(=O)c2ccc(C)cc2)c(O)c1 [mexeneone],0.0105
18,NC(=O)NC(=O)Cc1ccccc1 [phenacemide],-0.324
19,Clc1ccc(COC(Cn2ccnc2)c2ccc(Cl)cc2Cl)cc1 (stereo not drawn) [econazole nitrate],0.446
20,O=C(O)c1ccccc1 [benzoic acid],0.263
21,C[n+]1ccccc1/C=N/O [Pralidoxime iodide],-0.178
22,OC[C@@H](O)[C@@H](O[C@@H]1O[C@H](CO)[C@H](O)[C@H](O)[C@H]1O)[C@H](O)[C@@H](O)CO [lacitol],-0.602
23,CC(=O)Oc1ccccc1C(=O)Nc1ncc([N+](=O)[O-])s1 [nitazoxanide],0.447
24,Cc1cc2c(cc1S(N)(=O)=O)S(=O)(=O)CCC2 [meticrane],0.0172
25,O=C1[O][Bi]([OH])[O]c2ccccc21 [bismuth subsalicylate],1.46
26,CC1(C)C(C(=O)O)N2C(=O)C[C@H]2S1(=O)=O (stereo partly drawn) [sulbactam],4.29

# Single values from the entries so far:
# Cc1cnc(C(=O)NCCc2ccc(S(=O)(=O)NC(=O)NC3CCCCC3)cc2)cn1 [Glipizide] | APOC3 transcript change (Z-score): -1.39
# O=C1[O][Bi]([OH])[O]c2ccccc21 [bismuth subsalicylate] | APOC3 transcript change (Z-score): 1.46
# CC(=O)[C@H]1CCC2C3CC=C4C[C@@H](O)CC[C@]4(C)C3CC[C@@]21C (stereo partly drawn) [pregnenolone] | APOC3 transcript change (Z-score): 0.361

# (further entries)

row,Compound,APOC3 transcript change (Z-score)
1,CO/N=C(\C(=O)N[C@@H]1C(=O)N2C(C(=O)O)=C(C[N+]3(C)CCCC3)CS[C@H]12)c1csc(N)n1 [cefepime hydrochloride],0.76
2,COc1cc2c(cc1OC)C(=O)C(CC1CCN(Cc3ccccc3)CC1)C2 (stereo not drawn) [donepizil hydrochloride],0.283
3,CC(=O)N[C@@H](Cc1ccccc1)C(=O)O [afalanine],-0.451
4,CCCCC(=O)O[C@]1(C(=O)CO)CC[C@H]2[C@@H]3CCC4=CC(=O)CC[C@]4(C)[C@H]3[C@@H](O)C[C@@]21C [hydrocortisone valerate],0.643
5,Cc1noc(NS(=O)(=O)c2ccc(N)cc2)c1C [sulfisoxazole],-0.0918
6,c1ccc([C@H]2CN3CCSC3=N2)cc1 [levamisole hydrochloride],-0.316
7,COc1cc2nc(N(C)CCCNC(=O)C3CCCO3)nc(N)c2cc1OC (stereo not drawn) [alfuzosin hydrochloride],0.462
8,O=C(Nc1ccccc1)c1ccccc1O [salicylanilide],0.275
9,CC(C)COC(=O)c1ccc(N)cc1 [isobutamben],0.136
10,CC(=O)CC(c1ccccc1)c1c(O)oc2ccccc2c1=O (stereo not drawn) [warfarin],-0.534
11,C=CCSCC1Nc2cc(Cl)c(S(N)(=O)=O)cc2S(=O)(=O)N1 (stereo not drawn) [althiazide],1.1
12,Cc1cc(/C=C/c2ccc3cc(N(C)C)ccc3[n+]2C)c(C)n1-c1ccccc1 [pyrvinium pamoate],0.278
13,C[C@@H]1CC2C3CCC4=CC(=O)C=C[C@]4(C)[C@@]3(F)[C@@H](O)C[C@]2(C)[C@H]1C(=O)CO (stereo partly drawn) [desoxymetasone],1.15
14,CC(=O)O[C@H]1C(=O)[C@@]2(C)C([C@H](OC(=O)c3ccccc3)[C@]3(O)C[C@H](OC(=O)[C@H](O)[C@@H](NC(=O)c4ccccc4)c4ccccc4)C(C)=C1C3(C)C)[C@]1(OC(C)=O)CO[C@@H]1C[C@@H]2O (stereo partly drawn) [Taxol],2.93
15,C/C=C(/C(=C/C)c1ccc(O)cc1)c1ccc(O)cc1 [dienestrol],-1.63
16,CC(=O)Nc1ccc(O)cc1 [acetaminophen],0.564
17,CC(C)(C(=O)O)c1ccc(C(O)CCCN2CCC(C(O)(c3ccccc3)c3ccccc3)CC2)cc1 (stereo not drawn) [fexofenadine hydrochloride],0.52
18,NCCCC(N)C(=O)O (stereo not drawn) [ornithine aketoglutarate],0.834
19,O=C(Nc1ccccc1)OCC(CN1CCCCC1)OC(=O)Nc1ccccc1 (stereo not drawn) [diperodon hydrochloride],0.887
20,NC(Cc1ccc(O)cc1)C(=O)O (stereo not drawn) [tyrosine],-0.172
21,N=C(N)N/N=C/c1c(Cl)cccc1Cl [guanabenz acetate],-0.258
22,Cc1ccc2c(Cl)cc(Cl)c(O)c2n1 [chlorquinaldol],-1.52
23,CN(C)CCOC(=O)COc1ccc(Cl)cc1 [meclofenoxate hydrochloride],0.19
24,O=C(O)c1ccccc1OP(=O)(O)O [fosfosal],-0.777
25,COC(=O)N/N=C/c1c[n+]([O-])c2ccccc2[n+]1[O-] [carbadox],0.249
26,COC(=O)C(N)CS (stereo not drawn) [mecysteine hydrochloride],0.164

row,Compound,APOC3 transcript change (Z-score)
1,CC(N)C12CC3CC(CC(C3)C1)C2 (stereo not drawn) [rimantadine hydrochloride],0.111
2,O=C(O)c1cc(-c2ccccc2)nc2ccccc12 [cinchophen],0.77
3,COc1ccc2cc1Oc1ccc(cc1)C[C@H]1c3c(cc4c(c3Oc3cc5c(cc3OC)CCN(C)[C@@H]5C2)OCO4)CCN1C [cepharanthine],1.31
4,O=C1c2ccccc2C(=O)C1c1ccccc1 [phenindione],0.624
5,CN1CC(=O)N=C1N [creatinine],0.527
6,CN1CCN2c3ccccc3Cc3ccccc3C2C1 (stereo not drawn) [Mianserin hydrochloride],0.756
7,CCC(C)C1NC(=O)C(CCN)NC(=O)C(NC(=O)C(CCN)NC(=O)C(NC(=O)C(CCN)NC(=O)CCCCC(C)C)C(C)O)CCNC(=O)C(C(C)O)NC(=O)C(CCN)NC(=O)C(CCN)NC(=O)C(C(C)CC)NC1=O (stereo not drawn) [colistin sulfate],0.679
8,Cc1scc2c1N(C(=O)CN1CCN(C)CC1)c1ccccc1NC2=O [Telenzepine dihydrochloride],0.0442
9,OC[C@H]1O[C@@H](O[C@@H]2[C@@H](CO)OC(O)(CO)[C@H]2O)[C@H](O)[C@@H](O)[C@H]1O (mixture of isomers) [lactulose],-1.36
10,CN(C)CCC(c1ccc(Br)cc1)c1ccccn1 (stereo not drawn) [brompheniramine maleate],-0.383
11,CCCC(=O)Nc1ncnc2c1ncn2[C@@H]1O[C@@H]2COP(=O)(O)O[C@H]2[C@H]1OC(=O)CCC [bucladesine],0.437
12,O=C(O)CCCc1ccccc1 [phenylbutyric acid],0.483
13,CC1=CC(=O)NS(=O)(=O)O1 [acesulfame potassium],-0.0268
14,CCOc1cc(CC(=O)N[C@@H](CC(C)C)c2ccccc2N2CCCCC2)ccc1C(=O)O [repaglinide],-0.00412
15,O=C1C(O)=C(O)O[C@@H]1C(O)CO (stereo partly drawn) [ascorbic acid],0.566
16,CN[C@@H]1C(OC2[C@H](O[C@H]3[C@H](O)[C@@H](O)[C@H](N=C(N)N)[C@@H](O)[C@@H]3N=C(N)N)OC(C)[C@]2(O)CO)OC(CO)C(O)C1O (stereo partly drawn) [dihydrostreptomycin sulfate],1.04
17,CN(C)C(=N)N=C(N)N [metformin hydrochloride],0.959
18,CCN1CCN(C(=O)N[C@@H](C(=O)N[C@@H]2C(=O)N3[C@@H]2SC(C)(C)[C@@H]3C(=O)O)c2ccccc2)C(=O)C1=O [piperacillin sodium],0.416
19,CC(=O)Oc1cccc(O)c1 [resorcinol monoacetate],0.255
20,CN(C)CCc1c[nH]c2ccc(Cn3cncn3)cc12 [rizatriptan benzoate],-1.26
21,COc1ccc(NS(=O)(=O)c2ccc(N)cc2)nn1 [sulfamethoxypyridazine],0.483
22,O=C(CCBr)N1CCN(C(=O)CCBr)CC1 [pipobroman],-0.346
23,Cc1ccc(S(=O)(=O)NC(=O)NN2CC3CCCC3C2)cc1 (stereo not drawn) [gliclazide],0.422
24,CO[C@@]1(NC(=O)Cc2cccs2)C(=O)N2C(C(=O)O)=C(COC(N)=O)CS[C@@H]21 [cefoxitin sodium],-0.207
25,CC1(C)OC(=O)NC1=O [dimethadione],0.431
26,C=C[C@H]1CN2CC[C@H]1C[C@@H]2[C@H](O)c1ccnc2ccc(OC)cc12 [quinine sulfate],1.08
